Assay [1] concerns the target T1, FLAG-BirA*-SHLD2 (human) (UniProt Q86V20).
T1 sequence: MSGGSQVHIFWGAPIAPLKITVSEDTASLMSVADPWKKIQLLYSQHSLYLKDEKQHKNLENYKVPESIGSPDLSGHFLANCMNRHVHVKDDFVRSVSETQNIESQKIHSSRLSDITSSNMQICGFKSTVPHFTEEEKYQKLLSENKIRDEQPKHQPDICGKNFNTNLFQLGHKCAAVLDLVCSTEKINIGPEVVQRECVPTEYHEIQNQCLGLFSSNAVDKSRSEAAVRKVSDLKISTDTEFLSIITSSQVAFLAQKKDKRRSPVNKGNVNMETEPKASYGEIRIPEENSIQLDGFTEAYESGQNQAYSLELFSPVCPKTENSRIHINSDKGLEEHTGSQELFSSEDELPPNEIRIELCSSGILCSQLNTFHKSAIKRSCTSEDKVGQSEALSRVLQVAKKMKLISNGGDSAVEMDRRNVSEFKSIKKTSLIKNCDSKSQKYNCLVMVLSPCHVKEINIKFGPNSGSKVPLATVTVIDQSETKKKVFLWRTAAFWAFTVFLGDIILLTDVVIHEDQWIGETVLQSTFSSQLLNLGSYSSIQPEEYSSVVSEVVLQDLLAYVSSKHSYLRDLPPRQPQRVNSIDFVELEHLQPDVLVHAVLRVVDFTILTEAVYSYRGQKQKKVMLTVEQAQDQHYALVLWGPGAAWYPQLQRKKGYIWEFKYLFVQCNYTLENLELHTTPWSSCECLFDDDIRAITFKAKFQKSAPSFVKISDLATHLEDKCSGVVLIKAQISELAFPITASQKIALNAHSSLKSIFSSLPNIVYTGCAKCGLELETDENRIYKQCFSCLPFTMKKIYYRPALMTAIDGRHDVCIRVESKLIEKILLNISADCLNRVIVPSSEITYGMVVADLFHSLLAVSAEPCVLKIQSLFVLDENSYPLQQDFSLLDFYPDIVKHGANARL
Description: proximity labelling; BioID: FLAG-BirA*-SHLD2 transiently transfected in HEK293-T, 50 uM biotin, with or without NCS; RIPA lysis, streptavidin-sepharose, MS.

The chains behind the UniProt entries cited, without tags or fusion partners.
UniProt Q9UI95: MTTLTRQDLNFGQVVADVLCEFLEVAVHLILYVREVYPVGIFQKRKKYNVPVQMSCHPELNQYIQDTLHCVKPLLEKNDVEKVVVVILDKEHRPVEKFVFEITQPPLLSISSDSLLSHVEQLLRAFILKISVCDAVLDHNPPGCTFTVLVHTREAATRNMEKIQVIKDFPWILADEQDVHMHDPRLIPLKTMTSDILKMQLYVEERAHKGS
UniProt Q7L5N1: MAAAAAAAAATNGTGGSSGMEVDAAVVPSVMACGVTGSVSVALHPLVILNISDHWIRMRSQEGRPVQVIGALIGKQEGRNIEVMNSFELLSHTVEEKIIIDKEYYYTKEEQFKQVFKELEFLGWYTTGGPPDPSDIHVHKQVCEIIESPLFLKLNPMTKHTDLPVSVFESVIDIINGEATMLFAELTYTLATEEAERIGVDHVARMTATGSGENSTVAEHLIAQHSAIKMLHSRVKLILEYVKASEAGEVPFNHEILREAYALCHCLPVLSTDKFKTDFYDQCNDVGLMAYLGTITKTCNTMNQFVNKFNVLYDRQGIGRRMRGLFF
UniProt Q16531: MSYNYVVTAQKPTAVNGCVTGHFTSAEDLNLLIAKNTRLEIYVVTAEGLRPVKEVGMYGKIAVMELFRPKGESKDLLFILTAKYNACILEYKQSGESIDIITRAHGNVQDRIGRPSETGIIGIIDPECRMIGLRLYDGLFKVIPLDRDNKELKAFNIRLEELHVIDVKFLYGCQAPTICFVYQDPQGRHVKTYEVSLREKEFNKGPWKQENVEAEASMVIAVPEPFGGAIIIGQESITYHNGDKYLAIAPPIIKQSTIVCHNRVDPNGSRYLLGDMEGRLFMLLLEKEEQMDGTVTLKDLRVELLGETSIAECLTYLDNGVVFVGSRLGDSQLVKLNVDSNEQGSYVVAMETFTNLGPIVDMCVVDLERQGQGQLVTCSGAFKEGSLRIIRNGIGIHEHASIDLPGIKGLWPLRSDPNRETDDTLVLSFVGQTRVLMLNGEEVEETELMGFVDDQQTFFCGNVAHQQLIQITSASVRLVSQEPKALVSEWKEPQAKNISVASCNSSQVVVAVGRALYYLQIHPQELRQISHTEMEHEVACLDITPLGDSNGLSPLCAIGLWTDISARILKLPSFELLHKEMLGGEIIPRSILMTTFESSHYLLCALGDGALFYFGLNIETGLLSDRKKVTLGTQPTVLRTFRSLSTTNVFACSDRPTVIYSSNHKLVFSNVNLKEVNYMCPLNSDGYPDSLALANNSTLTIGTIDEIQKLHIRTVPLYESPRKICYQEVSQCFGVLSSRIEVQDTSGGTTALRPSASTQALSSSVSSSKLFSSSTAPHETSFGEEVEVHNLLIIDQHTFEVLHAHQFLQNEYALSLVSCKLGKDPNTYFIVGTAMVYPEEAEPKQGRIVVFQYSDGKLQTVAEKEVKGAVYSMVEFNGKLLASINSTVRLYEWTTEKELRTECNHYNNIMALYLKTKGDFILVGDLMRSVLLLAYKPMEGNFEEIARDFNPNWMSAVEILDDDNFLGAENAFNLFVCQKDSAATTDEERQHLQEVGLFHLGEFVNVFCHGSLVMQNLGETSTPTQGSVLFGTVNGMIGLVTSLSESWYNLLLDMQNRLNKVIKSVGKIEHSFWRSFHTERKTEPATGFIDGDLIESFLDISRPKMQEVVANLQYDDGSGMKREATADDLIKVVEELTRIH
UniProt Q93034: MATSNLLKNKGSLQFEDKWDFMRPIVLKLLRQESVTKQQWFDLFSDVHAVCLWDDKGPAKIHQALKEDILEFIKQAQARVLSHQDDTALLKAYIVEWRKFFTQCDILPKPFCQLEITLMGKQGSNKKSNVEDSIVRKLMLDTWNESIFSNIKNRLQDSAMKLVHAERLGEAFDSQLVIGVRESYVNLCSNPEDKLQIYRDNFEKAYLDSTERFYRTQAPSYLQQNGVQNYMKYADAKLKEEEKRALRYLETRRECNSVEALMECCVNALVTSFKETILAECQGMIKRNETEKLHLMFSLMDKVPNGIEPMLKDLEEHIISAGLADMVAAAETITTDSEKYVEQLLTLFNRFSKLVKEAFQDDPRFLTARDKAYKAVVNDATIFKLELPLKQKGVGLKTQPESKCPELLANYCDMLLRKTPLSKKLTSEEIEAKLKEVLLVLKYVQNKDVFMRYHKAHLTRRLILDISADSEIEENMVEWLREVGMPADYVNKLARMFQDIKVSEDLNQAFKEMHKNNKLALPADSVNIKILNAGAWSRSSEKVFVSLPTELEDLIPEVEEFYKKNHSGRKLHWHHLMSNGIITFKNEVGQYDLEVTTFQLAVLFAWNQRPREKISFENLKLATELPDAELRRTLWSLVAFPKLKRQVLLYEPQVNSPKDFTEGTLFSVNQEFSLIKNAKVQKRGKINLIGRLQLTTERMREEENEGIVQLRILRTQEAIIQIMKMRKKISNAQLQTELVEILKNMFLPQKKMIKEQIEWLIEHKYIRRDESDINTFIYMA
UniProt Q13620: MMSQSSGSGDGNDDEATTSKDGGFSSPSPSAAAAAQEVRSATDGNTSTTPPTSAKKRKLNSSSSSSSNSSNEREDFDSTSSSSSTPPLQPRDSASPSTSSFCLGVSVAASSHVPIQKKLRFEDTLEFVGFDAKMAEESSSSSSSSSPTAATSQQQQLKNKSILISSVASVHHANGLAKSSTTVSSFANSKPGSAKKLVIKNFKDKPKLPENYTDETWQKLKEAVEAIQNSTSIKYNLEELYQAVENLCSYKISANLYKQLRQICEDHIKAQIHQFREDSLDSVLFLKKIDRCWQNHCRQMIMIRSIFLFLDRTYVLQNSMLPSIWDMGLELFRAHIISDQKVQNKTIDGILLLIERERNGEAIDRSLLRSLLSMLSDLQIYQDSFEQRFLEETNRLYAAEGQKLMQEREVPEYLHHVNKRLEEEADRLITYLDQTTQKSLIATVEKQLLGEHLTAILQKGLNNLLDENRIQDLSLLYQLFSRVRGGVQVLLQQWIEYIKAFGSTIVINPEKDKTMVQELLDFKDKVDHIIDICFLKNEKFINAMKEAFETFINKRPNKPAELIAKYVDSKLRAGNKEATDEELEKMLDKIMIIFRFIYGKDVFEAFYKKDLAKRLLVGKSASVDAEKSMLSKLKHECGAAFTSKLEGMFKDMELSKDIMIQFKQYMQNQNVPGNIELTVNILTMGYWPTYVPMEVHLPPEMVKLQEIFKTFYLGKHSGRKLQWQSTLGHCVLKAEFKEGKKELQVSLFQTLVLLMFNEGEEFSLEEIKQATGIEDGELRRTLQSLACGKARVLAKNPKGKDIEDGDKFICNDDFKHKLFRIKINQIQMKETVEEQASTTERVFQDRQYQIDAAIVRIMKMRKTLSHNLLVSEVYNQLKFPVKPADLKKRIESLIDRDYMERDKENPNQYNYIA
UniProt Q14258: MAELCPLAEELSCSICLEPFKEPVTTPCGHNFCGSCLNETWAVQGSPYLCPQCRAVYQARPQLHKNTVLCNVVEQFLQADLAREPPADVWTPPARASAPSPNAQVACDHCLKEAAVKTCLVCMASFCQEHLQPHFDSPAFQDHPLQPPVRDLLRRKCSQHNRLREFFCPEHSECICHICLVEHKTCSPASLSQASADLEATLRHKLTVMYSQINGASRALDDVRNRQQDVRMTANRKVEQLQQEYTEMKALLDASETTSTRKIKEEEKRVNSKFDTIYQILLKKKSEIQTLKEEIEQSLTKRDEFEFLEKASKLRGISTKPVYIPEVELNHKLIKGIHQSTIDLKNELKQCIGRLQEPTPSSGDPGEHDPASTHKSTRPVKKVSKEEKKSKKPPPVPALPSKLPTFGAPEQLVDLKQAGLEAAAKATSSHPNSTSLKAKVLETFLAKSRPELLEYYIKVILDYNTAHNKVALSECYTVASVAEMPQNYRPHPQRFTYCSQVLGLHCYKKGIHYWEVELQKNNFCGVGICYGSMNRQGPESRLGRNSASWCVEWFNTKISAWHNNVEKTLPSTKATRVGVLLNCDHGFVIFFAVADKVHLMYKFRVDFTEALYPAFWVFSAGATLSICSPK

The target of assay [2] is Flag-REV7 (human) (UniProt Q9UI95). Description: affinity purification with mass spectrometry; Flag-REV7 stably expressed in HEK293 Flp-In/T-REx as bait; extracts of cells with or without neocarzinostatin (NCS); triplicate; SAINTexpress scoring.
Assay [3] addresses BirA*-Flag-REV7 (human) (UniProt Q9UI95). Put plainly: proximity labelling; BioID: BirA*-REV7 stably expressed in HEK293 T-REx, 50 uM biotin, with or without NCS (150 ng/ml); RIPA lysis, streptavidin-sepharose, MS; triplicate.

No constants are given. Whether binding was seen depends on the method and setting. Binding seen in cells or lysates may run through a third protein. A yes stands for co-enrichment or nearness to the bait. Other partners may have been found. For some assays here: Where a sequence is shown, tags or fusion partners need not be part of it.

With COPS6 (from UniProt Q7L5N1 1-327), the binding result in assay [1] is reported as “binds”. For DDB1 (from UniProt Q16531 1-1140), in assay [1], the binding entry is on record as “binds”. Consider CUL5 (from UniProt Q93034 1-780), for which the binding entry in assay [1] is recorded as “binds”. Still for that read-out and setting: the result for CUL4B (from UniProt Q13620 1-913) reads “binds”. In the case of “E3 Ubiquitin ligase TRIM25 (from UniProt Q14258 1-630)”, the binding entry in assay [1] is “binds”. Take “REV7 (endogenous) (from UniProt Q9UI95 1-211)”: the binding entry in assay [1] is reported as “binds”. Turning to COPS4 (from UniProt Q9BT78 1-406), the binding entry in assay [1] is listed as “binds”.

B1: SHLD2 (endogenous) (protein, UniProt Q86V20-2 1-904)
chain: MSGGSQVHIFWGAPIAPLKITVSEDTASLMSVADPWKKIQLLYSQHSLYLKDEKQHKNLENYKVPESIGSPDLSGHFLANCMNRHVHVKDDFVRSVSETQNIESQKIHSSRLSDITSSNMQICGFKSTVPHFTEEEKYQKLLSENKIRDEQPKHQPDICGKNFNTNLFQLGHKCAAVLDLVCSTEKINIGPEVVQRECVPTEYHEIQNQCLGLFSSNAVDKSRSEAAVRKVSDLKISTDTEFLSIITSSQVAFLAQKKDKRRSPVNKGNVNMETEPKASYGEIRIPEENSIQLDGFTEAYESGQNQAYSLELFSPVCPKTENSRIHINSDKGLEEHTGSQELFSSEDELPPNEIRIELCSSGILCSQLNTFHKSAIKRSCTSEDKVGQSEALSRVLQVAKKMKLISNGGDSAVEMDRRNVSEFKSIKKTSLIKNCDSKSQKYNCLVMVLSPCHVKEINIKFGPNSGSKVPLATVTVIDQSETKKKVFLWRTAAFWAFTVFLGDIILLTDVVIHEDQWIGETVLQSTFSSQLLNLGSYSSIQPEEYSSVVSEVVLQDLLAYVSSKHSYLRDLPPRQPQRVNSIDFVELEHLQPDVLVHAVLRVVDFTILTEAVYSYRGQKQKKVMLTVEQAQDQHYALVLWGPGAAWYPQLQRKKGYIWEFKYLFVQCNYTLENLELHTTPWSSCECLFDDDIRAITFKAKFQKSAPSFVKISDLATHLEDKCSGVVLIKAQISELAFPITASQKIALNAHSSLKSIFSSLPNIVYTGCAKCGLELETDENRIYKQCFSCLPFTMKKIYYRPALMTAIDGRHDVCIRVESKLIEKILLNISADCLNRVIVPSSEITYGMVVADLFHSLLAVSAEPCVLKIQSLFVLDENSYPLQQDFSLLDFYPDIVKHGANARL
Turning to B1, the binding entry in assay [2] and in assay [3] was “binds” each time.

B2: chromosome alignment-maintaining phosphoprotein (CHAMP1) (protein, UniProt Q96JM3 1-812)
chain: MEAFQELRKPSARLECDHCSFRGTDYENVQIHMGTIHPEFCDEMDAGGLGKMIFYQKSAKLFHCHKCFFTSKMYSNVYYHITSKHASPDKWNDKPKNQLNKETDPVKSPPLPEHQKIPCNSAEPKSIPALSMETQKLGSVLSPESPKPTPLTPLEPQKPGSVVSPELQTPLPSPEPSKPASVSSPEPPKSVPVCESQKLAPVPSPEPQKPAPVSPESVKATLSNPKPQKQSHFPETLGPPSASSPESPVLAASPEPWGPSPAASPESRKSARTTSPEPRKPSPSESPEPWKPFPAVSPEPRRPAPAVSPGSWKPGPPGSPRPWKSNPSASSGPWKPAKPAPSVSPGPWKPIPSVSPGPWKPTPSVSSASWKSSSVSPSSWKSPPASPESWKSGPPELRKTAPTLSPEHWKAVPPVSPELRKPGPPLSPEIRSPAGSPELRKPSGSPDLWKLSPDQRKTSPASLDFPESQKSSRGGSPDLWKSSFFIEPQKPVFPETRKPGPSGPSESPKAASDIWKPVLSIDTEPRKPALFPEPAKTAPPASPEARKRALFPEPRKHALFPELPKSALFSESQKAVELGDELQIDAIDDQKCDILVQEELLASPKKLLEDTLFPSSKKLKKDNQESSDAELSSSEYIKTDLDAMDIKGQESSSDQEQVDVESIDFSKENKMDMTSPEQSRNVLQFTEEKEAFISEEEIAKYMKRGKGKYYCKICCCRAMKKGAVLHHLVNKHNVHSPYKCTICGKAFLLESLLKNHVAAHGQSLLKCPRCNFESNFPRGFKKHLTHCQSRHNEEANKKLMEALEPPLEEQQI
For B2, the binding entry in assay [2] and in assay [3] was “binds” each time.

The values are drawn from publication PMC6138439.
